These results are taken from PMC6109052.

These are yes or no findings as the source states them, for the method shown. Binding seen in cells or lysates may run through a third protein. Some results given as binding are weak or reduced against the parent protein; the word gives no strength.

The experiment deals with GluN1 subunit of N-methyl-D-aspartic acid receptor (NMDAR) (mouse (endogenous in hippocampal synaptosomes)) (UniProt P35438). Description: co-IP; co-immunoprecipitation from hippocampal synaptosomal preparations of mice; GluN1 N-terminus and C-terminus antibodies; bound and unbound fractions blotted.

B1: Neurofilament light subunit (protein, UniProt P08551 1-543)
chain: MSSFGYDPYFSTSYKRRYVETPRVHISSVRSGYSTARSAYSSYSAPVSSSLSVRRSYSSSSGSLMPSLENLDLSQVAAISNDLKSIRTQEKAQLQDLNDRFASFIERVHELEQQNKVLEAELLVLRQKHSEPSRFRALYEQEIRDLRLAAEDATNEKQALQGEREGLEETLRNLQARYEEEVLSREDAEGRLMEARKGADEAALARAELEKRIDSLMDEIAFLKKVHEEEIAELQAQIQYAQISVEMDVSSKPDLSAALKDIRAQYEKLAAKNMQNAEEWFKSRFTVLTESAAKNTDAVRAAKDEVSESRRLLKAKTLEIEACRGMNEALEKQLQELEDKQNADISAMQDTINKLENELRSTKSEMARYLKEYQDLLNVKMALDIEIAAYRKLLEGEETRLSFTSVGSITSGYSQSSQVFGRSAYSGLQSSSYLMSARSFPAYYTSHVQEEQTEVEETIEATKAEEAKDEPPSEGEAEEEEKEKEEGEEEEGAEEEEAAKDESEDTKEEEEGGEGEEEDTKESEEEEKKEESAGEEQVAKKKD
As to B1, the binding entry is “binds”.
